# Laboratory results taken from PubChem BioAssay AID254 (DTP/NCI, 2004).
# The list shows only some results of the screen, not a fair sample: it gathers tests that were run many times, whatever their T/C, doses with no T/C, and many T/C values between a quarter and a half above the control. Other doses and runs of a compound stand elsewhere. T/C gives the treated animals as a percentage of the vehicle group. Some entries give survivors of the animals treated and no T/C: the source files T/C as zero there, which appears to mark a toxic dose or a test without result, not a measured value. Some doses without a T/C left all or most animals alive at the check, yet need not have been tolerated: the source hardly ever lists a survival T/C far under the control, and the zero likely stands for such cases as well. Counts of survivors are from the toxicity check (mostly the fifth day) where no day follows; animals may have died later. Schedule codes are those of the source, taken here to give the interval after Q, in days (D) or hours (H), and the number of doses after X. Some doses were run more than once; the values are given in rising order. Where survival is the endpoint, the PubChem record calls one and a half times the control and up active, and a quarter to a half above the control has no call in these data; cut-offs in other NCI protocols can differ. Marks such as (2×) give the number of equal values in this list. Some schedule codes hold Z or #, which are not explained here.
# Tested on: L1210 leukemia iv in BDF1 mice, survival T/C
# Assay: NCI In Vivo Anticancer Drug Screen. Data for tumor model L1210 Leukemia (intravenous) in B6D2F1 (BDF1) mice
# Conditions: higher T/C = longer survival
# Procedure: The antitumor activity of compounds was measured in mice bearing transplantable tumors. Survival or tumor size were measured and the results are expressed as the measurement made in the treated group (T) divided by the measurement made in the vehicle treated control group (C). The tumor model used in this assay is L1210 Leukemia (intravenous) in B6D2F1 (BDF1) mice
# [1] = T/C endpoint: mean survival time, dose: 45.0 mg/kg/injection, schedule: Q01DX001 (ip), vehicle: other
structure (smiles),measurement,setting,value
O=NN(CCCl)C(=O)NCCCl,T/C,"T/C endpoint: mean survival time, dose: 3.7 mg/kg/injection, schedule: Q01DX001 (ip), vehicle: other",128 and 145 % of control
same,T/C,"T/C endpoint: mean survival time, dose: 15.0 mg/kg/injection, schedule: Q01DX001 (ip), vehicle: other","194, 207, 223, 247, 265 % of control"
same,T/C,"T/C endpoint: mean survival time, dose: 20.0 mg/kg/injection, schedule: Q01DX001 (ip), vehicle: other, evaluated on day 45","221, 239, 310 % of control"
same,T/C,"T/C endpoint: mean survival time, dose: 20.0 mg/kg/injection, schedule: Q01DX001 (ip), vehicle: other, evaluated on day 60",287 and 331 % of control
same,T/C,"T/C endpoint: mean survival time, dose: 20.0 mg/kg/injection, schedule: Q01DX001 (ip), vehicle: saline + alcohol, evaluated on day 3","279, 288, 299, 307, 414 % of control"
same,T/C,"T/C endpoint: mean survival time, dose: 20.0 mg/kg/injection, schedule: Q01DX001 (ip), vehicle: saline + alcohol, evaluated on day 60",288 and 307 % of control
same,T/C,"T/C endpoint: mean survival time, dose: 30.0 mg/kg/injection, schedule: Q01DX001 (ip), vehicle: saline + alcohol, evaluated on day 3","323, 334, 422, 429, 445 % of control"
same,T/C,"T/C endpoint: mean survival time, dose: 30.0 mg/kg/injection, schedule: Q01DX001 (ip), vehicle: saline + alcohol, evaluated on day 60",323 and 422 % of control
same,T/C,"T/C endpoint: mean survival time, dose: 40.0 mg/kg/injection, schedule: Q01DX001 (ip), vehicle: other, evaluated on day 45","339, 443, 564 % of control"
same,T/C,"T/C endpoint: mean survival time, dose: 40.0 mg/kg/injection, schedule: Q01DX001 (ip), vehicle: other, evaluated on day 60",390 and 460 % of control
same,T/C,"T/C endpoint: mean survival time, dose: 40.0 mg/kg/injection, schedule: Q01DX001 (ip), vehicle: saline + alcohol, evaluated on day 3","330, 368, 395, 404, 427, 459 % of control"
same,T/C,"T/C endpoint: mean survival time, dose: 40.0 mg/kg/injection, schedule: Q01DX001 (ip), vehicle: saline + alcohol, evaluated on day 60",330 and 405 % of control
same,T/C,"T/C endpoint: mean survival time, dose: 50.0 mg/kg/injection, schedule: Q01DX001 (ip), vehicle: saline + alcohol, evaluated on day 3","361, 382, 478 % of control"
same,T/C,"T/C endpoint: mean survival time, dose: 50.0 mg/kg/injection, schedule: Q01DX001 (ip), vehicle: saline + alcohol, evaluated on day 60",361 and 382 % of control
same,T/C,"T/C endpoint: mean survival time, dose: 60.0 mg/kg/injection, schedule: Q01DX001 (ip), vehicle: other, evaluated on day 45","232, 267, 308 % of control"
same,T/C,"T/C endpoint: mean survival time, dose: 60.0 mg/kg/injection, schedule: Q01DX001 (ip), vehicle: other, evaluated on day 60",687 % of control
same,T/C,"T/C endpoint: median survival time, dose: 60.0 mg/kg/injection, schedule: Q## X001 (ip), vehicle: saline + alcohol",149 % of control
CC1CCC(NC(=O)N(CCCl)N=O)CC1 (stereo not given),T/C,"T/C endpoint: mean survival time, dose: 3.2 mg/kg/injection, schedule: Q01DX001 (ip), vehicle: other","100, 109 (2×), 110, 112, 113, 115 (3×), 121, 125, 126, 130 % of control (2×)"
same,T/C,"T/C endpoint: mean survival time, dose: 5.4 mg/kg/injection, schedule: Q01DX001 (oral), vehicle: other",131 % of control
same,T/C,"T/C endpoint: mean survival time, dose: 6.0 mg/kg/injection, schedule: Q01DX001 (ip), vehicle: other","116, 129, 130, 131 (2×), 141, 142, 146, 148, 150, 151 (3×), 160 % of control"
same,T/C,"T/C endpoint: mean survival time, dose: 10.0 mg/kg/injection, schedule: Q01DX001 (ip), vehicle: saline with Tween-80, evaluated on day 3","134, 190, 193 % of control"
same,T/C,"T/C endpoint: mean survival time, dose: 10.0 mg/kg/injection, schedule: Q01DX001 (ip), vehicle: saline with Tween-80, evaluated on day 60",134 and 193 % of control
same,T/C,"T/C endpoint: mean survival time, dose: 13.0 mg/kg/injection, schedule: Q01DX001 (ip), vehicle: other","151, 183, 186, 195, 197, 225 (2×), 237, 239, 248, 275, 285, 293, 347 % of control"
same,T/C,"T/C endpoint: mean survival time, dose: 16.0 mg/kg/injection, schedule: Q01DX001 (ip), vehicle: other","200, 204, 273, 307, 321 % of control"
same,T/C,"T/C endpoint: mean survival time, dose: 20.0 mg/kg/injection, schedule: Q01DX001 (ip), vehicle: saline with Tween-80, evaluated on day 3","183, 253, 290, 522 % of control"
same,T/C,"T/C endpoint: mean survival time, dose: 20.0 mg/kg/injection, schedule: Q01DX001 (ip), vehicle: saline with Tween-80, evaluated on day 60","183, 253, 522 % of control"
same,T/C,"T/C endpoint: mean survival time, dose: 24.0 mg/kg/injection, schedule: Q01DX001 (ip), vehicle: other, evaluated on day 45","374, 429, 441, 554, 648 % of control"
same,T/C,"T/C endpoint: mean survival time, dose: 24.0 mg/kg/injection, schedule: Q01DX001 (ip), vehicle: other, evaluated on day 60","516, 632, 660, 694 % of control"
same,T/C,"T/C endpoint: mean survival time, dose: 24.0 mg/kg/injection, schedule: Q01DX001 (oral), vehicle: other, evaluated on day 45",389 and 566 % of control
same,T/C,"T/C endpoint: mean survival time, dose: 24.0 mg/kg/injection, schedule: Q01DX001 (oral), vehicle: other, evaluated on day 60","362, 418, 543 % of control"
same,T/C,"T/C endpoint: mean survival time, dose: 27.0 mg/kg/injection, schedule: Q01DX001 (ip), vehicle: other","377, 422, 440, 448, 530, 556, 560, 562, 571, 600, 608, 630, 633 (2×), 650, 661, 709 % of control"
same,T/C,"T/C endpoint: mean survival time, dose: 30.0 mg/kg/injection, schedule: Q01DX001 (ip), vehicle: saline with Tween-80, evaluated on day 3","172, 288, 647, 653, 1020 % of control"
same,T/C,"T/C endpoint: mean survival time, dose: 30.0 mg/kg/injection, schedule: Q01DX001 (ip), vehicle: saline with Tween-80, evaluated on day 60",288 and 653 % of control
same,survivor count,"T/C endpoint: mean survival time, dose: 30.0 mg/kg/injection, schedule: Q01DX001 (ip), vehicle: saline with Tween-80",10 of 10
same,T/C,"T/C endpoint: mean survival time, dose: 36.0 mg/kg/injection, schedule: Q01DX001 (ip), vehicle: other, evaluated on day 45","615, 676, 697, 698, 745, 752, 817, 882 % of control"
same,T/C,"T/C endpoint: mean survival time, dose: 36.0 mg/kg/injection, schedule: Q01DX001 (ip), vehicle: other, evaluated on day 60","121, 810, 906, 911 % of control"
same,T/C,"T/C endpoint: mean survival time, dose: 40.0 mg/kg/injection, schedule: Q01DX001 (ip), vehicle: other","232, 590, 637, 676 % of control"
same,T/C,"T/C endpoint: mean survival time, dose: 40.0 mg/kg/injection, schedule: Q01DX001 (ip), vehicle: saline with Tween-80, evaluated on day 3","144, 633, 845, 909, 1070 % of control"
same,T/C,"T/C endpoint: mean survival time, dose: 40.0 mg/kg/injection, schedule: Q01DX001 (ip), vehicle: saline with Tween-80, evaluated on day 60",633 and 909 % of control
same,survivor count,"T/C endpoint: mean survival time, dose: 40.0 mg/kg/injection, schedule: Q01DX001 (ip), vehicle: saline with Tween-80",9 of 9
same,T/C,[1],"580, 585, 803, 860 % of control"
same,T/C,"T/C endpoint: mean survival time, dose: 50.0 mg/kg/injection, schedule: Q01DX001 (ip), vehicle: other","107, 117, 150, 154 % of control"
same,T/C,"T/C endpoint: mean survival time, dose: 50.0 mg/kg/injection, schedule: Q01DX001 (ip), vehicle: saline with Tween-80, evaluated on day 3","109, 772, 848, 873, 1080 % of control"
same,T/C,"T/C endpoint: mean survival time, dose: 50.0 mg/kg/injection, schedule: Q01DX001 (ip), vehicle: saline with Tween-80, evaluated on day 60",772 and 848 % of control
same,survivor count,"T/C endpoint: mean survival time, dose: 50.0 mg/kg/injection, schedule: Q01DX001 (ip), vehicle: saline with Tween-80",10 of 10
same,T/C,"T/C endpoint: mean survival time, dose: 54.0 mg/kg/injection, schedule: Q01DX001 (ip), vehicle: other, evaluated on day 45","261, 275, 345, 487, 504, 552, 558, 566, 585, 625, 634, 642, 654, 720, 732, 746, 795, 829, 852 % of control"
same,T/C,"T/C endpoint: mean survival time, dose: 54.0 mg/kg/injection, schedule: Q01DX001 (ip), vehicle: other, evaluated on day 60","93, 570, 712, 724 % of control"
same,T/C,"T/C endpoint: mean survival time, dose: 60.0 mg/kg/injection, schedule: Q01DX001 (ip), vehicle: other","153, 171, 212, 264, 630 % of control"
same,T/C,"T/C endpoint: mean survival time, dose: 75.0 mg/kg/injection, schedule: Q01DX001 (ip), vehicle: other","109, 115, 332, 364 % of control"
same,T/C,"T/C endpoint: mean survival time, dose: 100.0 mg/kg/injection, schedule: Q01DX001 (ip), vehicle: other","117, 131, 183, 187 % of control"
same,T/C,"T/C endpoint: mean survival time, dose: 125.0 mg/kg/injection, schedule: Q01DX001 (ip), vehicle: other","165, 168, 330, 588 % of control"
same,T/C,"T/C endpoint: mean survival time, dose: 150.0 mg/kg/injection, schedule: Q01DX001 (ip), vehicle: other","236, 280, 464, 712 % of control"
same,T/C,"T/C endpoint: mean survival time, dose: 540.0 mg/kg/injection, schedule: Q01DX001 (ip), vehicle: saline with Tween-80",130 % of control
O=NN(CCF)C(=O)NCCCl,survivor count,"T/C endpoint: mean survival time, dose: 48.0 mg/kg/injection, schedule: Q01DX001 (ip), vehicle: Klucel (hydroxypropylcellulose) (HPC)",6 of 10
same,survivor count,"T/C endpoint: mean survival time, dose: 71.0 mg/kg/injection, schedule: Q01DX001 (ip), vehicle: Klucel (hydroxypropylcellulose) (HPC)",2 of 10 and 6 of 10
O=NN(CCCl)C(=O)NC1C2CC3CC(C2)CC1C3 (stereo not given),T/C,[1],134 % of control
CCOC(=O)C1CCC(NC(=O)N(CCCl)N=O)CC1 (stereo not given),T/C,"T/C endpoint: mean survival time, dose: 8.0 mg/kg/injection, schedule: Q01DX001 (ip), vehicle: other",129 % of control
same,survivor count,"T/C endpoint: mean survival time, dose: 30.0 mg/kg/injection, schedule: Q04DX004 (ip), vehicle: gum acacia",10 of 10
O=c1[nH]cc(F)c(=O)[nH]1,T/C,"T/C endpoint: mean survival time, dose: 30.0 mg/kg/injection, schedule: Q01DX005 (ip), vehicle: saline, evaluated on day 5",134 % of control
same,T/C,"T/C endpoint: mean survival time, dose: 30.0 mg/kg/injection, schedule: Q01DX005 (ip), vehicle: saline, evaluated on day 45",134 % of control
